Assay results published in patent US20250313634A1.
These are yes or no findings as the source states them, for the method shown. Some results given as binding are weak or reduced against the parent protein; the word gives no strength.

By UniProt entry, the sequences of proteins in these tests, tags left out. Residues count along the entry.
UniProt Q9NZQ7, residues 19-290: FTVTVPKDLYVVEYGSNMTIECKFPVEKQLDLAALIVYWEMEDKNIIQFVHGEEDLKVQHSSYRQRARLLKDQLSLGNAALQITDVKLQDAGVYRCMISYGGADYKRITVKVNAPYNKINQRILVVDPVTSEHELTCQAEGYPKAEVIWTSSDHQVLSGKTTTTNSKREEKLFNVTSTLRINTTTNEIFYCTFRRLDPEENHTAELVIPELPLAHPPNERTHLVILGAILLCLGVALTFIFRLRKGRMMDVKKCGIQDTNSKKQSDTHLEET

Experiments:
[1] = molecular target: cynomolgus monkey PD-L1 (cynomolgus monkey) (UniProt G7PSE7); test: ELISA, antigen coated
[2] = molecular target: full-length human PD-L1 expressed on CHO cells (human) (UniProt Q9NZQ7); test: FACS competition: antibody pre-bound to CHO cells expressing human PD-L1, then mouse Fc-tagged human PD-1 added and detected
[3] = molecular target: full-length human PD-L1 expressed on CHO cells (human) (UniProt Q9NZQ7); test: FACS on PD-L1 transfected CHO-K1 cells, single bar, antibody concentration not shown
[4] = molecular target: cynomolgus monkey PD-L1 (cynomolgus monkey) (UniProt G7PSE7); test: ELISA, cynomolgus PD-L1 coated on the plate, goat anti-human IgG Fc-HRP; single bar, antibody concentration not shown
[5] = molecular target: full-length human PD-L1 expressed on CHO cells (human) (UniProt Q9NZQ7); test: FACS on CHO cells transfected with full-length human PD-L1
[6] = molecular target: full-length human PD-L1 expressed on CHO cells (human) (UniProt Q9NZQ7); test: FACS
[7] = molecular target: full-length human PD-L1 expressed on CHO cells (human) (UniProt Q9NZQ7); test: FACS on CHO cells transfected with PD-L1

Measured: binding

B1: 1.4.1 (antibody, V domains shown)
VH: QLQLQESGPGLVKPSESLSLTCTVSGGSISIRTYYWGWIRQPPGTGLEWMGYIYYSGSTRYNPSLKSRVTISVDTSKNQFSLKLSSVTAADTAVYYCARLSYFFDYWGQGTLVTVSS
VL: SYELTQPPSVSVSPGQTASITCSGDKLGDKYACWYQQKPGQSPVMVIYQDTKRPSGIPERFSGSNSGNTATLTISGTLAMDEADYYCQAWDSGTVIFGGGTKLTVL
binds: [1] | [2] | [3] | [4] | [5] | [6] | [7]

B2: 1.20.15 (antibody, V domains shown)
VH: QLQLQESGPGLVKPSETLSLTCTVSGGSISSISNYWGWIRQPPGKGLEWIGSIYYSGSTNYNPPLKSRVTISVDTTKNQFSLKLSSVTAADTAVYYCARLTYYFDYWGQGMLVTVSS
VL: SYDLTQPPSVSVSPGQTASITCSGDKLGDKYACWYQQKPGQSPLLVIQQDSKRPSGIPARFSGSNSGNTATLTISGTQAMDEADYFCQTWDSSTVVFGGGTKLTVL
binds: [1] | [4]
